The values below come from PMC11497051.

By UniProt entry, the sequences of proteins in these tests, tags left out.
UniProt P46937: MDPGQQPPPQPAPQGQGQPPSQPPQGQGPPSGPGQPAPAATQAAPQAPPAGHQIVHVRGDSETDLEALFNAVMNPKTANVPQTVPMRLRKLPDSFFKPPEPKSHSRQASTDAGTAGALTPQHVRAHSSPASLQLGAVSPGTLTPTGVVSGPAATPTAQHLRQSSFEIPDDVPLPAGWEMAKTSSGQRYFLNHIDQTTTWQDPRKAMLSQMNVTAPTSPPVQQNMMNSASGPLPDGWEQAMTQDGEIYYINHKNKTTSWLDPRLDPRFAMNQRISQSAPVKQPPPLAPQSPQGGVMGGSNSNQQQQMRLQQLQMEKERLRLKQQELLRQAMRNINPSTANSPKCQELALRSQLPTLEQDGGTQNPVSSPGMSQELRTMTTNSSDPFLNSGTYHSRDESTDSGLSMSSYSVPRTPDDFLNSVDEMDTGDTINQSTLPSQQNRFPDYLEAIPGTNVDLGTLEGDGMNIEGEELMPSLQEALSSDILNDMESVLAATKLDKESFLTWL

No constants are given. Whether binding was seen depends on the method and setting. In cells and extracts the contact can be indirect. Here binding means that the protein was enriched with, or labelled near, the bait; the list need not be complete.

In the experiment the target is T1, Neuraminidase 4 (NEU4) (human (endogenous in HK-2)) (UniProt Q8WWR8).
T1 sequence: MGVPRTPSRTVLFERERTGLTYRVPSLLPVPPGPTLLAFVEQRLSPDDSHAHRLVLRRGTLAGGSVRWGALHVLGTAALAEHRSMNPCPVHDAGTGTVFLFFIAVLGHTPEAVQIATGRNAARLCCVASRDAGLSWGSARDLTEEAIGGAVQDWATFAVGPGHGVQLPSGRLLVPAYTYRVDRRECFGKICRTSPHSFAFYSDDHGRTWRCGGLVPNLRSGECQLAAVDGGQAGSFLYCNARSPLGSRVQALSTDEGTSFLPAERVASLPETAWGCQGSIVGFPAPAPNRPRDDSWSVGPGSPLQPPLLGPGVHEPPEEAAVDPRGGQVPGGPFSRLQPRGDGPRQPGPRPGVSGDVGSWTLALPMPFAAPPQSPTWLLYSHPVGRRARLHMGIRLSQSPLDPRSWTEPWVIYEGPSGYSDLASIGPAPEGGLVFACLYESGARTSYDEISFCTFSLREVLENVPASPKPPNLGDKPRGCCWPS
The experiment in a line: affinity purification with mass spectrometry; lysates of HK-2 cells treated with TGF-β for 24 h; IP with NEU4 antibody or IgG on Protein A/G magnetic beads; washes with 1% SDS, 0.1% SDS and 6 M urea in PBS; bands cut from SDS-PAGE, trypsin, LC-MS/MS.

On to “Yes-associated protein (YAP) (from UniProt P46937 1-504)”, for which the binding result is “binds”.
